Source: PubChem BioAssay AID1259405 (NCATS, 2018)

- Test: 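Knock-downs that lift recombinant protein yield in hamster ovary cells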 (primary screen)
- System: Chinese hamster CHO-K1 ovary cells with stable secreted eGFP expression
- Knock-down reagent: single siRNA against mouse genes, 0.8 pmol siRNA per well (2 µl of 400 nM stock)
- Time to read-out: 3 days
- Measured: 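Per-well intracellular GFP measured by laser scanning cytometry, plus viability from ATP luminescence, each relative to plate median of non-targeting control wells, in %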
- Reading the numbers: GFP, % of control: higher = more GFP per well, higher productivity; viability (ATP), % of control: higher = more viable cells (more ATP)
- Hit rule: 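a knock-down is called active if GFP reaches 120% or more of non-targeting control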
Shown is a random part of about 50,000 reagents tested. About 4,000 of them (8%) count as active. 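Mouse siRNA library applied to hamster cells; one well for each siRNA.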 A number with no mark means an inactive call. Reagent sequences are not shown.

no.	gene knocked down	PubChem SID	GFP, % of control	viability (ATP), % of control
1	Retnla	SID363554959	84.8	85.2
2	Retnla	SID363568406	54.5	51.1
3	Retnla	SID363586465	66.4	82.1
4	Btla	SID363547043	52.9	33.4
5	Btla	SID363549855	89.9	107
6	Btla	SID363587909	107	111
7	Gdap2	SID363581892	115	160
8	Gdap2	SID363589386	79.3	87.6
9	Eri2	SID363545618	72.4	58
10	Eri2	SID363549131	98.5	84
11	Eri2	SID363562937	77.2	66.2
12	Zfp672	SID363555246	96.9	90.9
13	Zfp672	SID363563907	16.7	29.1
14	Zfp672	SID363587453	85.8	104
15	Cpn2	SID363544122	112	110
16	Cpn2	SID363550450	59.4	88.7
17	Cpn2	SID363556999	53.2	78.4
18	Tmem131	SID363539800	69.5	85.3
19	Tmem131	SID363561101	59	98.6
20	Tmem131	SID363565191	61	64.6
21	Slamf9	SID363545061	39.7	26
22	Slamf9	SID363551389	71.1	91.3
23	Slamf9	SID363557938	12.6	17.6
24	Spata2	SID363554941	67.9	71.2
25	Spata2	SID363568388	57	42.2
26	Spata2	SID363586447	76.3	74.7
27	Kmt5b	SID363556382	29.5	40.4
28	Kmt5b	SID363586832	93.8	126
29	Kmt5b	SID363588940	104	92
30	Cd96	SID363553622	54.8	75.7
31	Cd96	SID363561579	98.1	93.7
32	Cd96	SID363565317	76	70.5
33	Grxcr1	SID363556811	70.2	59.9
34	Grxcr1	SID363563715	93.9	86.8
35	Grxcr1	SID363587261	101	96.6
36	Ccdc136	SID363547021	63.8	77
37	Ccdc136	SID363549833	89.7	92.1
38	Ccdc136	SID363587887	119	91.2
39	Syn1	SID363572356	23.2	69.7
40	Syn1	SID363574116	101	103
41	Rflna	SID363543813	59.4	66.1
42	Rflna	SID363551549	81.2	80.8
43	Rflna	SID363559154	76.8	66.9
44	Slc43a3	SID363581752	75.7	65.8
45	Slc43a3	SID363589246	61	49.1
46	Cts6	SID363547306	61	101
47	Cts6	SID363558075	16.2	25.3
48	Cts6	SID363559833	74	83.7
49	Opa1	SID363541800	66.4	63.4
50	Opa1	SID363553392	66.7	84.9
51	Opa1	SID363566716	50.6	30.9
52	Zfp938	SID363542379	82.1	92.7
53	Zfp938	SID363551870	71.9	73.8
54	Zfp938	SID363559475	72.2	81.8
55	Sost	SID363541785	141 (active)	87.9
56	Sost	SID363553377	76.6	75.6
57	Sost	SID363566701	55.7	52.8
58	Cds1	SID363570421	139 (active)	89.5
59	Cds1	SID363579221	94.4	111
60	Cds1	SID363583093	106	95.1
61	S1pr3	SID363571328	100	104
62	S1pr3	SID363571680	99.8	78.2
63	S1pr3	SID363572032	57	83.1
64	Dapk2	SID363570899	140 (active)	102
65	Pkia	SID363573288	63.1	76.1
66	Pkia	SID363588527	115	89.3
67	Gtf2b	SID363573287	106	71.1
68	Gtf2b	SID363588526	108	88
69	Lamtor3	SID363562078	64.8	70.8
70	Lamtor3	SID363567216	58.7	42.6
71	Lamtor3	SID363584573	85.4	49
72	Pmaip1	SID363554785	96.1	73.2
73	Pmaip1	SID363568232	71	74.6
74	Pmaip1	SID363586291	69.5	72.2
75	Tyrp1	SID363573023	83.8	94.4
76	Tyrp1	SID363577599	96.4	95.4
77	Tyrp1	SID363581119	70.7	71.2
78	Pacsin1	SID363582370	88.2	71.8
79	Pacsin1	SID363584130	63	49.2
80	Tbcc	SID363556296	70.4	63.2
81	Tbcc	SID363586746	58.1	110
82	Tbcc	SID363588854	104	110
83	Tgfb1	SID363572562	79.5	57.3
84	Tgfb1	SID363577842	90.4	70.3
85	Tgfb1	SID363582066	71.7	94.5
